This note sets out measurements from paper PMC5300155, “Biochemical and biophysical investigations of the interaction between human glucokinase and pro-apoptotic BAD” (PLoS ONE, 2017).

Experiment [1] has as its target T1, recombinant human pancreatic glucokinase (human), P35557.
T1 chain: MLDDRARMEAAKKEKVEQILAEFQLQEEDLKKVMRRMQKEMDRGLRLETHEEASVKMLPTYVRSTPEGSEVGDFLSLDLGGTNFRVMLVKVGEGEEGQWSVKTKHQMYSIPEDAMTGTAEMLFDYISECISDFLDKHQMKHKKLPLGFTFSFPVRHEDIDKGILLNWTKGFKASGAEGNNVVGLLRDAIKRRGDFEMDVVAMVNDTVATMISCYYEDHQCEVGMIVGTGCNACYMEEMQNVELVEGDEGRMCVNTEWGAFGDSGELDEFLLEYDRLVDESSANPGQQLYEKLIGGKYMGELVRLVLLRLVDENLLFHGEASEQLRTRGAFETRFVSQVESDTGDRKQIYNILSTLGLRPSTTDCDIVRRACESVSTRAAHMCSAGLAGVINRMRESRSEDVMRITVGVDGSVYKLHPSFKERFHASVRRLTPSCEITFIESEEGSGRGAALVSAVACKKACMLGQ
Put plainly: SEC; HiPrep 16/60 Sephacryl S-200 HR, calibrated; single proteins or equimolar mixtures incubated on ice 30 min; BAD buffer pH 8.5; 4°C; both purified. Particulars: remark: other sources report otherwise. Background: SEC sorts molecules by how far they enter the pores of the column.

Experiment [2] deals with T2, FITC-labeled 21-residue peptide containing the BH3 domain of BAD (human).
T2 sequence (peptide, FITC on the lysine at peptide position 18 (K(FITC))): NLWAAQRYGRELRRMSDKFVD
The experiment is described as follows: fluorescence polarisation; FITC peptide fixed, GCK varied (methods: 0–400 μM); with and without 0.2 M glucose; also with trifluoroethanol (20–40%); room temperature; both purified.

The target in experiment [3] is T3, S118D BAD-GST variant (human) (UniProt Q92934).
T3 sequence: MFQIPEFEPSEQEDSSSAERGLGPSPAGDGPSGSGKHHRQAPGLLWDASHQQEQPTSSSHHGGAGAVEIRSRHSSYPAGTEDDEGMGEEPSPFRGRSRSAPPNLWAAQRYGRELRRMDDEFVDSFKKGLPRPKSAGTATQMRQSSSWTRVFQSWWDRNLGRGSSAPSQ
The experiment is described as follows: condition: GCK 100 μM titrated into 10–15 μM S118D BAD-GST; ITC; GCK (100 μM) titrated in 13 μL injections into S118D BAD-GST (10–15 μM); BAD buffer pH 8.5; 25°C; both purified.

For experiment [4], the target named is T4, recombinant human pancreatic glucokinase (human) (UniProt P35557).
T4 sequence: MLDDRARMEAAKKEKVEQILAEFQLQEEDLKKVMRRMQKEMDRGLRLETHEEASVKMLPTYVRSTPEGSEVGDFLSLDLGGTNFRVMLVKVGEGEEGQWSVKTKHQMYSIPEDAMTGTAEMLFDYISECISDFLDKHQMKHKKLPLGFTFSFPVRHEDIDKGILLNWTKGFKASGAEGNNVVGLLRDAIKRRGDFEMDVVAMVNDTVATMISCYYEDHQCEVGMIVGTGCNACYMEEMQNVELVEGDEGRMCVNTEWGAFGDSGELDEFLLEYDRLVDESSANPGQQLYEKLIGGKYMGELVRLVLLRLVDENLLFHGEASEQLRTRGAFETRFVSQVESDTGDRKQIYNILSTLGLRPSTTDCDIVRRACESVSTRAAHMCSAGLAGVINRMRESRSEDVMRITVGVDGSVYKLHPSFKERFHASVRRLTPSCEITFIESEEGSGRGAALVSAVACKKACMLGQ
The experiment is described as follows: ITC; pBH3 peptide (300 μM) titrated into GCK (10 μM); 25 mM potassium phosphate, 25 mM KCl, 4 mM TCEP, 5% DMSO, with and without 200 mM glucose; 25°C; both purified. (In general: In ITC the heat of successive injections is recorded.)

No constants are given. Whether binding was seen depends on the method and setting. Sequences can lack the tags named with a protein.

B1: recombinant human pancreatic glucokinase, P35557 1-465 (enzyme)
chain: MLDDRARMEAAKKEKVEQILAEFQLQEEDLKKVMRRMQKEMDRGLRLETHEEASVKMLPTYVRSTPEGSEVGDFLSLDLGGTNFRVMLVKVGEGEEGQWSVKTKHQMYSIPEDAMTGTAEMLFDYISECISDFLDKHQMKHKKLPLGFTFSFPVRHEDIDKGILLNWTKGFKASGAEGNNVVGLLRDAIKRRGDFEMDVVAMVNDTVATMISCYYEDHQCEVGMIVGTGCNACYMEEMQNVELVEGDEGRMCVNTEWGAFGDSGELDEFLLEYDRLVDESSANPGQQLYEKLIGGKYMGELVRLVLLRLVDENLLFHGEASEQLRTRGAFETRFVSQVESDTGDRKQIYNILSTLGLRPSTTDCDIVRRACESVSTRAAHMCSAGLAGVINRMRESRSEDVMRITVGVDGSVYKLHPSFKERFHASVRRLTPSCEITFIESEEGSGRGAALVSAVACKKACMLGQ
As to B1, the binding result in experiment [1] was “no binding”.

B2: recombinant human pancreatic glucokinase (enzyme, UniProt P35557 1-465)
chain: MLDDRARMEAAKKEKVEQILAEFQLQEEDLKKVMRRMQKEMDRGLRLETHEEASVKMLPTYVRSTPEGSEVGDFLSLDLGGTNFRVMLVKVGEGEEGQWSVKTKHQMYSIPEDAMTGTAEMLFDYISECISDFLDKHQMKHKKLPLGFTFSFPVRHEDIDKGILLNWTKGFKASGAEGNNVVGLLRDAIKRRGDFEMDVVAMVNDTVATMISCYYEDHQCEVGMIVGTGCNACYMEEMQNVELVEGDEGRMCVNTEWGAFGDSGELDEFLLEYDRLVDESSANPGQQLYEKLIGGKYMGELVRLVLLRLVDENLLFHGEASEQLRTRGAFETRFVSQVESDTGDRKQIYNILSTLGLRPSTTDCDIVRRACESVSTRAAHMCSAGLAGVINRMRESRSEDVMRITVGVDGSVYKLHPSFKERFHASVRRLTPSCEITFIESEEGSGRGAALVSAVACKKACMLGQ
For the molecule B2, the binding result in experiment [2] is recorded as “no binding (tested: 10^−9 to 10^−5 M GCK)”; in experiment [3], “no binding”.

Consider NLWAAQRYGRELRRMSDKFVD (phosphoserine at position 118 (peptide position 16)) [21-residue phosphorylated peptide containing the BH3 domain of BAD], for which, in experiment [4], the binding entry is “no binding (tested: up to 50 μM)”.
